Publication PMC11649922
These are yes or no findings as the source states them, for the method shown. In cells and extracts the contact can be indirect. Some entries that bind do so weakly or less than the wild type. For part of these data: Where a sequence is shown, tags or fusion partners need not be part of it.

Chains of the proteins cited; added tags and fusions are not shown.
UniProt Q06330: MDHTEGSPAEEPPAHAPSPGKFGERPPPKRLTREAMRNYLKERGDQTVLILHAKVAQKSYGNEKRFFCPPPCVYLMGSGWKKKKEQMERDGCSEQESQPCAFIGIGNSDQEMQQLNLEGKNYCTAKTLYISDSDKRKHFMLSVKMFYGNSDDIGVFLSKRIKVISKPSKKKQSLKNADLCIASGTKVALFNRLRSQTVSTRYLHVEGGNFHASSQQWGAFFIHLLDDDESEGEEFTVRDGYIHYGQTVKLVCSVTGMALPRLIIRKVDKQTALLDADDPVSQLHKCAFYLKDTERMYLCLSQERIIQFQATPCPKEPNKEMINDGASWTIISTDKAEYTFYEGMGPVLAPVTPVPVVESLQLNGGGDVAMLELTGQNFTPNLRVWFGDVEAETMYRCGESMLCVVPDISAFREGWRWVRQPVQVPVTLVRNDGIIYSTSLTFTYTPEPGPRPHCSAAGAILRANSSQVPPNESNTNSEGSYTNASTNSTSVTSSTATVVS
UniProt Q9GZV5: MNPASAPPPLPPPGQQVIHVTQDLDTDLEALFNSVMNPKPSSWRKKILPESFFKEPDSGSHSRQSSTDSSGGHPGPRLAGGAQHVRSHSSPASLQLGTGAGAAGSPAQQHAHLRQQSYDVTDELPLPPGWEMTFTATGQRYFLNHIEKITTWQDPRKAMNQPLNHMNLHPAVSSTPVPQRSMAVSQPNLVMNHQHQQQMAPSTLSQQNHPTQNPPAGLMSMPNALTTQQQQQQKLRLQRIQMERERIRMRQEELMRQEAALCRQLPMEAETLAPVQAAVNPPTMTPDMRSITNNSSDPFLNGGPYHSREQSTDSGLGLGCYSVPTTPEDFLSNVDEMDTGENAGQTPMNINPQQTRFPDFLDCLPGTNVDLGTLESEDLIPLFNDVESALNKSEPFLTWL
UniProt P30052: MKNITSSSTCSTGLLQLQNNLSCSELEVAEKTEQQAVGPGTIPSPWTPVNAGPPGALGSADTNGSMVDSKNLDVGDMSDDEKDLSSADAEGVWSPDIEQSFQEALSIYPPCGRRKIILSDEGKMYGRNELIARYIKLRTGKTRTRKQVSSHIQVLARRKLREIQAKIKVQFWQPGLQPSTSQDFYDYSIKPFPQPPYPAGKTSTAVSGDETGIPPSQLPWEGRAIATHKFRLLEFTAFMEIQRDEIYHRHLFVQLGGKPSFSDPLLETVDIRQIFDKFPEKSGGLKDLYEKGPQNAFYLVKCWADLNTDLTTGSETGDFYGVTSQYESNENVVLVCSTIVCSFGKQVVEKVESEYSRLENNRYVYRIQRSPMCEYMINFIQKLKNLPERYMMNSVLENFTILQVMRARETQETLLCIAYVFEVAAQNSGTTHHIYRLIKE
UniProt P28159: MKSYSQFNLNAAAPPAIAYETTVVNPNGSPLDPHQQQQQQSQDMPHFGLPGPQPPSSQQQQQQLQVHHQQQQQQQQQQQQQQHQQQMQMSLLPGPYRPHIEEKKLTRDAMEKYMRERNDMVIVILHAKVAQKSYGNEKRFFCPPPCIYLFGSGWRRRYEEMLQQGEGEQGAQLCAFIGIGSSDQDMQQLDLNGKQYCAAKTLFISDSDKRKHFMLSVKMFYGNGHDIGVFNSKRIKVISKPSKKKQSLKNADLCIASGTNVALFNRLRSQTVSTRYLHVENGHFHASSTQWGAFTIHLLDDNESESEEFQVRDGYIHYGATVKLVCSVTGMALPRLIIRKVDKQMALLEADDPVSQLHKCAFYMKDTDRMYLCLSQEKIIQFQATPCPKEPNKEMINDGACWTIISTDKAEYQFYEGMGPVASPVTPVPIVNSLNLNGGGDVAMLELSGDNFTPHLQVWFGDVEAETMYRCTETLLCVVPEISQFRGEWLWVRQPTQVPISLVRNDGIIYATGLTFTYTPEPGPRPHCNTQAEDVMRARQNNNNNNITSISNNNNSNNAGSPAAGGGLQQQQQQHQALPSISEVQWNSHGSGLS
UniProt P46937: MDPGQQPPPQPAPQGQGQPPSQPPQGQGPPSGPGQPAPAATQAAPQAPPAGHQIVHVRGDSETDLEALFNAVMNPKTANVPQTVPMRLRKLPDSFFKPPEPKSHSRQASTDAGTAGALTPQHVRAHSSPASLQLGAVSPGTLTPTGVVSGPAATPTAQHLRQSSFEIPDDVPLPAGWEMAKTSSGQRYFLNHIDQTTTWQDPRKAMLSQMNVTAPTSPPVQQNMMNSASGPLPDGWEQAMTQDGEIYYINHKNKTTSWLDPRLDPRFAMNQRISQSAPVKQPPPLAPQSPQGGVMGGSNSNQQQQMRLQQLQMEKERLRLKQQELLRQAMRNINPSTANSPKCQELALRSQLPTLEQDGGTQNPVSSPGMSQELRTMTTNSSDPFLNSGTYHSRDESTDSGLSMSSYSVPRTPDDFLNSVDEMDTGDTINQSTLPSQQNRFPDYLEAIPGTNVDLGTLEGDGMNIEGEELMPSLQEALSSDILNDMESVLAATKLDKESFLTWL

T1: Flag-tagged E75 (Eip75B, A isoform), UAS-E75^Flag (Drosophila melanogaster) (UniProt P17672)
T1 sequence: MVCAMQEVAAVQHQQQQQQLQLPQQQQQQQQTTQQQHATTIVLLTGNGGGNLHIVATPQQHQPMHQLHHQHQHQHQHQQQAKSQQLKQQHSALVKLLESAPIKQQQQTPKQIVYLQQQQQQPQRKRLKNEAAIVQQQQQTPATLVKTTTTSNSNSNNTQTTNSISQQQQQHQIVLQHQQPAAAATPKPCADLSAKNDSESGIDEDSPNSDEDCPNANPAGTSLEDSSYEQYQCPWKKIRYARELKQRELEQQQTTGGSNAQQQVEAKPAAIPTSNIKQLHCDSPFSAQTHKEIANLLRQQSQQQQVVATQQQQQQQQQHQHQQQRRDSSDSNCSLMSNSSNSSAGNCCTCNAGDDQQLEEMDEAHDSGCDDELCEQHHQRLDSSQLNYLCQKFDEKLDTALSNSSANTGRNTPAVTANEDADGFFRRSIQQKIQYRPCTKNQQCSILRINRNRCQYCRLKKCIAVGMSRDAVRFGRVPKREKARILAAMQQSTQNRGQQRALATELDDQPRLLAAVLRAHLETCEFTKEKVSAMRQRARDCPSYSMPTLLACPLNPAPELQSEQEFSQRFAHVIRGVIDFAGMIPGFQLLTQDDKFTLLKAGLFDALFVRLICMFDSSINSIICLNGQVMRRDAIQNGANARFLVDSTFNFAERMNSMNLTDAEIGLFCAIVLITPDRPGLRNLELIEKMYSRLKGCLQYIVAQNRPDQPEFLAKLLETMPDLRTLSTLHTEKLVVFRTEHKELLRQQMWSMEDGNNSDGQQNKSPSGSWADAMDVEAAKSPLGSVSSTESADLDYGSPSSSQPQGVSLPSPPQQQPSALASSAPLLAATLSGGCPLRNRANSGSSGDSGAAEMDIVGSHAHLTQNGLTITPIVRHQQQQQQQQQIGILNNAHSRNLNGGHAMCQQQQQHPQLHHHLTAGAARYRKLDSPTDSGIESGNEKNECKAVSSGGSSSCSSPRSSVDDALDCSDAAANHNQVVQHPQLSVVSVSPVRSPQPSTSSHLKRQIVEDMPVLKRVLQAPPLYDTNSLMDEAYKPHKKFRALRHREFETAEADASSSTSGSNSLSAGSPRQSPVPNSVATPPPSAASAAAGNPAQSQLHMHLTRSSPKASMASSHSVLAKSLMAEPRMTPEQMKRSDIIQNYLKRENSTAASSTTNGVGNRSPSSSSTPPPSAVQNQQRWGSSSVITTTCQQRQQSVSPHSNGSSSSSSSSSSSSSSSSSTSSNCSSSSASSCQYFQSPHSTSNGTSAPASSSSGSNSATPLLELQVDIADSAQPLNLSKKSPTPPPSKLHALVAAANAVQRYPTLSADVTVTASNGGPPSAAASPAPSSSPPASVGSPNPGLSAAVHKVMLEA

T2: NR1D2 (nuclear receptor subfamily 1 group D member 2), endogenous (human (endogenous in MGG6 and U87 MG)) (UniProt Q14995)
T2 sequence: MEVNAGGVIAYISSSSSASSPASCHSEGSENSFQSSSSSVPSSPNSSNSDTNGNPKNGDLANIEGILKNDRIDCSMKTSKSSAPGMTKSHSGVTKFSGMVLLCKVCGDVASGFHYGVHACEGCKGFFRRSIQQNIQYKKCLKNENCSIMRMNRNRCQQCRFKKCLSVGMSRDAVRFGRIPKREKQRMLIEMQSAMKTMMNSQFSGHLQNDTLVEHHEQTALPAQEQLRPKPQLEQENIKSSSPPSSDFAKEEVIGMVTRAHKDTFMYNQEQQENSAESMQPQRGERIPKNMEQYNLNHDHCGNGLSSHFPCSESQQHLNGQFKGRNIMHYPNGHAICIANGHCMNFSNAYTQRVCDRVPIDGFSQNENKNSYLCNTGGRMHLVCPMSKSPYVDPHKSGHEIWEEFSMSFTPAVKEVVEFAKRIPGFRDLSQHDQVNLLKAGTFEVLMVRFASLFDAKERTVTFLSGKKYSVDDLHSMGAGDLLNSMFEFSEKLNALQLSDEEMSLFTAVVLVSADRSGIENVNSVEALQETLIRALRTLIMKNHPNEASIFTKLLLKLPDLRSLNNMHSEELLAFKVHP

T3: NR1D2-HA (UniProt Q14995)
T3 sequence: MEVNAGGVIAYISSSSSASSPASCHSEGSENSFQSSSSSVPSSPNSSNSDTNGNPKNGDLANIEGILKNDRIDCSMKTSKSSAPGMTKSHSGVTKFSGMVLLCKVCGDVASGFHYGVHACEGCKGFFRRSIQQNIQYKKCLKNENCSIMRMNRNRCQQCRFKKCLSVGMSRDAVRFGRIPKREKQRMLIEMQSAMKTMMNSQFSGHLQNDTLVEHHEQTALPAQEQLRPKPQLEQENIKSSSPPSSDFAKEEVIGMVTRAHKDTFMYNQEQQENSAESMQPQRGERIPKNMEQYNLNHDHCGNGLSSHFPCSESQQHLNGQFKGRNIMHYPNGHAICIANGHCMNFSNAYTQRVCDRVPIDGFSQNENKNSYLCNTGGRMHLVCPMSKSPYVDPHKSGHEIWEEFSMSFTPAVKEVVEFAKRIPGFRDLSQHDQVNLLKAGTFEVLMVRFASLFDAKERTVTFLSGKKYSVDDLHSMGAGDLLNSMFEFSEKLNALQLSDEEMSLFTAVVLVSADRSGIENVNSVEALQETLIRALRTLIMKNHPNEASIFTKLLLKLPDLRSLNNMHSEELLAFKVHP


Assays:
[1] = molecular target: T1, Flag-tagged E75 (Eip75B, A isoform), UAS-E75^Flag (Drosophila melanogaster); test: proximity ligation; Duolink in situ PLA on fixed eye-antennal discs with ey-Flp-MARCM-induced clones that overexpress E75^Flag (alone or with Yki and Sd^HA)
[2] = molecular target: T1, Flag-tagged E75 (Eip75B, A isoform), UAS-E75^Flag (Drosophila melanogaster); test: co-IP; lysates (NP40 buffer with PMSF) of ey-Flp-MARCM-induced eye epithelial tumors expressing Sd^HA, E75^Flag and Yki (Fig. 5D,E) or Notch^act, E75^Flag and Yki (Fig. 5F,G); primary antibody or conjugated magnetic beads overnight at 4 °C; western blot
[3] = molecular target: T1, Flag-tagged E75 (Eip75B, A isoform), UAS-E75^Flag (Drosophila melanogaster); test: proximity ligation; Duolink in situ PLA on fixed Drosophila wing discs expressing the tagged or untagged transgenes; primary antibodies from mouse and rabbit; controls without primary antibodies
[4] = molecular target: T2, NR1D2 (nuclear receptor subfamily 1 group D member 2), endogenous (human (endogenous in MGG6 and U87 MG)); test: proximity ligation; Duolink in situ PLA on fixed MGG6 glioblastoma stem cells; mouse anti-NR1D2 with a rabbit antibody to the partner; endogenous proteins
[5] = molecular target: T2, NR1D2 (nuclear receptor subfamily 1 group D member 2), endogenous (human (endogenous in MGG6 and U87 MG)); test: proximity ligation; Duolink in situ PLA on fixed U87 MG cells; mouse anti-NR1D2 with a rabbit antibody to the partner; endogenous proteins
NR1D2-HA = molecular target: T3, NR1D2-HA; test: co-IP; lysates (NP40 buffer with PMSF) of U87 MG cells stably transfected with NR1D2-HA; immunoprecipitated and probed for endogenous TEAD, TAZ, NICD1 and RBPJ

Molecule	binding [1]	binding [2]	binding [3]	binding [4]	binding [5]	binding (NR1D2-HA)
RBPJ, endogenous (from UniProt Q06330 1-500)	–	–	–	binds	binds	binds
TAZ, endogenous (from UniProt Q9GZV5 1-400)	–	–	–	binds	binds	binds
Myc-tagged Yki (UAS-yki^Myc) (protein, UniProt Q45VV3 1-395) MLTTMSASSNTNSLIEKEIDDEDMLSPIKSNNLVVRVNQDTDDNLQALFDSVLNPGDAKRPLQLPLRMRKLPNSFFTPPAPSHSRANSADSTYDAGSQSSINIGNKASIVQQPDGQSPIAAIPQLQIQPSPQHSRLAIHHSRARSSPASLQQNYNVRARSDAAAANNPNANPSSQQQPAGPTFPENSAQEFPSGAPASSAIDLDAMNTCMSQDIPMSMQTVHKKQRSYDVISPIQLNRQLGALPPGWEQAKTNDGQIYYLNHTTKSTQWEDPRIQYRQQQQILMAERIKQNDVLQTTKQTTTSTIANNLGPLPDGWEQAVTESGDLYFINHIDRTTSWNDPRMQSGLSVLDCPDNLVSSLQIEDNLCSNLFNDAQAIVNPPSSHKPDDLEWYKIN	–	–	binds	–	–	–
Yki, overexpressed (UAS-Yki) (protein, UniProt Q45VV3 1-395) MLTTMSASSNTNSLIEKEIDDEDMLSPIKSNNLVVRVNQDTDDNLQALFDSVLNPGDAKRPLQLPLRMRKLPNSFFTPPAPSHSRANSADSTYDAGSQSSINIGNKASIVQQPDGQSPIAAIPQLQIQPSPQHSRLAIHHSRARSSPASLQQNYNVRARSDAAAANNPNANPSSQQQPAGPTFPENSAQEFPSGAPASSAIDLDAMNTCMSQDIPMSMQTVHKKQRSYDVISPIQLNRQLGALPPGWEQAKTNDGQIYYLNHTTKSTQWEDPRIQYRQQQQILMAERIKQNDVLQTTKQTTTSTIANNLGPLPDGWEQAVTESGDLYFINHIDRTTSWNDPRMQSGLSVLDCPDNLVSSLQIEDNLCSNLFNDAQAIVNPPSSHKPDDLEWYKIN	–	binds	–	–	–	–

Further lines, results first:

binding [1]	binding [2]	binding [3]	binding [4]	binding [5]	binding (NR1D2-HA)	Molecule
binds	binds	binds	–	–	–	HA-tagged Sd (UAS-Sd^HA) (from UniProt P30052 1-440)
binds	binds	–	–	–	–	Suppressor of Hairless [Su(H)], endogenous (from UniProt P28159 1-594)
–	–	–	binds	binds	–	Yap, endogenous (from UniProt P46937 1-504)
